The source of these data is PubChem BioAssay AID1347423 (Functional Genomics Laboratory (NCATS/FGL), 2020).

The whole screen tested about 52,000 sequences, of which about 210 (0.4%) were called active.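 The calls were made as follows: active = gene whose silencing raises cell survival under the drug, median off-target-corrected z-score across its silencing RNAs 2 or more; inactive = the rest.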 The list shows a part of the results.

The assay in a line: Resistance to Poly (ADP-Ribose) Polymerase inhibitor: Gene Identification via Genome-wide siRNA Screen. The conditions noted are these: mouse BRCA2 R2336H ES cells, olaparib, CellTiter-Glo viability; active compounds read high. An outline of the steps:
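Mouse BRCA2 R2336H ES cells were reverse-transfected with siRNA (20 nM final), treated at 48 h with 500 nM olaparib, and read by CellTiter-Glo after 72 h. Scores: MAD-based z per siRNA, median per gene, seed off-target correction.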
As to GGCUAUAGCAGCACAUUGGTT against Ylpm1, the z-score is inactive: -1.08. With GGUACAGUGUCAUCAUGAATT against Olfr460 the figure was inactive: 1.54; with “GGAAGAAUGGUUAAAGGGATT against 4833420K19Rik”, inactive: 1.68. With “CCUAGAAAUGAUUGUUGUUTT against 5830426I05Rik” the figure was inactive: -1.58; with CGAGAUGACCUCCUUUAUATT against Ephb3, inactive: 0.578; with CCUACAGAUAGGUAUGUAGTT against Exo1, inactive: 1.25. Regarding “CCCUAUGCAAUAUAUAGACTT against 4930488E11Rik”, the z-score is inactive: 0.0434.

Turning to CGUGUUGAAAAACUCACAATT against V1rc22, the z-score was inactive: -0.586. For “GCAAUGUUUACGAAUGAGGTT against 2010309E21Rik”, the z-score was inactive: 0.573. For GGGAAGAGCGCAUAGAUACTT against Clca2 the value was inactive: 2.58; for CCCUGUAGAAAUUCAAGCCTT against BC034664, inactive: -0.429; for GGCAAGAAGAAGGAGAAGCTT against Atp4a, inactive: 0.741. With GGCUUCAAGUCUGUUCAACTT against Slc35e4 the figure was inactive: -0.174; with CGGAGGCUUUUACCAAGUCTT against Tirap, inactive: -0.395. With CCUAAUAUGCCAUGGUUCATT against Eef1a2, the z-score was inactive: -0.758.

For GGCCGUACCUAUGAUCUAUTT against Lrfn3, the z-score was inactive: -0.595.

With GGGUUCUGGGAAGGUAUAUTT against Olfr705, the z-score is inactive: -2.37. For CCUUGGAAUCAAUGUCACGTT against Siah2 the value was inactive: -0.815. With GAGUGUCAGGUCCAAGUUATT against V1rg3 the figure was inactive: 0.0946; with GGCGGAAAUUCCAAUGGUGTT against Fn1, inactive: 0.575. For GGUGCUAAAGAUCUGAGAUTT against BC025446 the value was inactive: -0.645. “GGAGGAAGAAAUAAAUUACTT against 0610009A07Rik”: the z-score was inactive: 0.862.

GGUUCCUCUUUUCCUGGUATT against Olfr1499: the z-score is inactive: -0.422. For GGAAGUCUAAAGAACAGGATT against Fbxo8 the value was inactive: 1.03; for GCGAAGAAGAAGUCGCUCCTT against Clk2, inactive: 0.456; for “GGUAAAGUUGCUUAAUUAGTT against 1700060H10Rik”, inactive: 0.884. For GCCCAGUGUGCAAUUAAACTT against Uvrag1 the value was inactive: -0.406; for CCAAAGUUUUAUCAGUUUGTT against Gpr87, inactive: -0.469; for GCCCUACAGCAGACUAGAATT against Vax2, inactive: -1.92.

Regarding AGCAGUUGGCUUUUCUAACTT against Paqr9, the z-score was inactive: 0.00097. On to GGUGUAGGGAAUUGUGAAUTT against Rpia, for which the z-score is inactive: -1.02. For GCCAGAAUCAGAUCUCUCGTT against Amigo the value was inactive: 0.818; for GGUAACACUGUCCACCACUTT against Olfr348, inactive: 1.35. For GGGAAUUUAUGCAUUAGCATT against Kif2a the value was inactive: 0.368; for GGAUGUCAAUGAGGUUUUUTT against Mpp5, inactive: 0.2. For GGCAAGGAGAAAGGAUUGUTT against Mgl1 the value was inactive: 0.0694; for GCUCAACCCAUUCUUUGAUTT against Ddc8, inactive: 0.369.

Turning to GGAUAAAGUGAGGAUUCUATT against Pcdhga4, the z-score was inactive: -0.296. For GGCGAUUUACAAGCUGAAGTT against Guca1b the value was inactive: -0.186; for “GCUACGAAGAAGCAUGCCUTT against 9630044O09Rik”, inactive: 1.85. For GCCAUACUACAUCACAGAGTT against S100a15 the value was inactive: 0.172; for GGAAAAGGUUUUGUAGAAUTT against Pspc1, inactive: 0.741; for CCUGCCUGACAUUCCUAUUTT against Zdhhc19, inactive: -0.933. For “GCAGUUAAAUCCCUUUCAUTT against 4930429M06Rik” the value was inactive: 1.42; for GGUCAUUGAGCUGAUGGACTT against Elovl1, inactive: 0.856. Consider CCUAUAAGUGAACUGUGAUTT against Aig1, for which the z-score was inactive: -1.16. With GGAGUUCAUUGAUCAUUCUTT against Ndufb5 the figure was inactive: 2; with GCCUCUCAUUAGCAGUCAATT against Fbxl15, inactive: 0.328; with GCAUAAGAAGAAACACCUUTT against Usp17, inactive: 1.34.

For the sequence “GGCUGAAGACUACUUCCUATT against 4932416K20Rik”, the z-score was inactive: -1.71.

For the sequence GCAUGUAGUUCAUCAGUACTT against Tubgcp5, the z-score is inactive: -0.584. With “GGUGCUAUGUGCGUUUGAUTT against 9830107B12”, the z-score was inactive: 0.765. With GGAGUACAUGACCACAGAUTT against AB041803 the figure was inactive: -0.883. With CCAUUAGCAAUGUGCUUCUTT against Unc13a the figure was inactive: 0.0849. With GAGAAUGACGGACAAGUGUTT against Timm9 the figure was inactive: -0.0823; with CCUGAAAUCCUGUAGCUACTT against Perld1, inactive: -0.208.

Regarding GGUGCAGAAUAUUGAAUGUTT against AI847670, the z-score was inactive: 0.0478. For GGCUGUGAGCCGUAAGACUTT against Mrpl16 the value was inactive: 0.388. For GGUGGAGAACUGAGAAUCUTT against Obp1a the value was inactive: 0.166; for GCUUAAACAGCUUUACUUATT against Actr2, inactive: 0.945; for CCUUUGUAACUGGAAUUCUTT against Olfr197, inactive: 0.0133. Turning to “CCGGAGCUAACACCUACAGTT against 1700049L16Rik”, the z-score was inactive: -1.34. For CGUAACAAGCAGGAAGCAATT against Xlr4 the value was inactive: -0.748; for GGUCUUCUCGGGUCGAAAGTT against Cpt1a, inactive: -0.17; for GGAAUGACUUCCCUACAAUTT against AI836376, inactive: -1.67.

On to “GCAUUUGUUAAACCUGCCUTT against 1500041J02Rik”, for which the z-score was inactive: -0.727.
